Laboratory results from publication PMC1524803.
These are yes or no findings as the source states them, for the method shown. Binding seen in cells or lysates may run through a third protein. Some entries that bind do so weakly or less than the wild type.

Chains of the proteins cited; added tags and fusions are not shown.
UniProt P14635: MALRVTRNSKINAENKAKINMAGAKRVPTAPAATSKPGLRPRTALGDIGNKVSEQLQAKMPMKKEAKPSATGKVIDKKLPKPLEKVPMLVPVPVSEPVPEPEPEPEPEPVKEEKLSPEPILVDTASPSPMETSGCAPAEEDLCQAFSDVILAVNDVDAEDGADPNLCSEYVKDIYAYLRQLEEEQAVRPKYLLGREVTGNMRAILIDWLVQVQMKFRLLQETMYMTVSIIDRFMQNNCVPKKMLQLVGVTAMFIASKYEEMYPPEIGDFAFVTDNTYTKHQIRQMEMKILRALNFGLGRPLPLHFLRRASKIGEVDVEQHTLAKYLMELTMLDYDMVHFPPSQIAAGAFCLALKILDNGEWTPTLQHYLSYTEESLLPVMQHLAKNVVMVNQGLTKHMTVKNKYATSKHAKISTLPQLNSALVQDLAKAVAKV

Assays:
[1] = biological target: cyclin B (human (endogenous in HCT116)) (UniProt P14635); assay: condition: only cells arrested in mitosis following an 18-hour treatment with colchicine; co-IP; cyclin B immunoprecipitated with anti-cyclin B1 antibodies (Santa Cruz) from lysate of HCT116 cells arrested in mitosis with colchicine (0.5 ug/ml, 18 hours); blot with anti-hCdc14A (Ab-2)
[2] = biological target: cyclin B (human (endogenous in HCT116)) (UniProt P14635); assay: co-IP; cyclin B immunoprecipitated with anti-cyclin B1 antibodies (Santa Cruz) from lysate of mock-treated (asynchronized) HCT116 cells; blots with anti-hCdc14A (Ab-2) and anti-Cdk1; Cdk1 was also recovered from cells treated with colchicine

B1: hCdc14A (enzyme, UniProt Q9UNH5 1-594)
chain: MAAESGELIGACEFMKDRLYFATLRNRPKSTVNTHYFSIDEELVYENFYADFGPLNLAMVYRYCCKLNKKLKSYSLSRKKIVHYTCFDQRKRANAAFLIGAYAVIYLKKTPEEAYRALLSGSNPPYLPFRDASFGNCTYNLTILDCLQGIRKGLQHGFFDFETFDVDEYEHYERVENGDFNWIVPGKFLAFSGPHPKSKIENGYPLHAPEAYFPYFKKHNVTAVVRLNKKIYEAKRFTDAGFEHYDLFFIDGSTPSDNIVRRFLNICENTEGAIAVHCKAGLGRTGTLIACYVMKHYRFTHAEIIAWIRICRPGSIIGPQQHFLEEKQASLWVQGDIFRSKLKNRPSSEGSINKILSGLDDMSIGGNLSKTQNMERFGEDNLEDDDVEMKNGITQGDKLRALKSQRQPRTSPSCAFRSDDTKGHPRAVSQPFRLSSSLQGSAVTLKTSKMALSPSATAKRINRTSLSSGATVRSFSINSRLASSLGNLNAATDDPENKKTSSSSKAGFTASPFTNLLNGSSQPTTRNYPELNNNQYNRSSNSNGGNLNSPPGPHSAKTEEHTTILRPSYTGLSSSSARFLSRSIPSLQSEYVHY
binding [1]: no binding
binding [2]: binds
